Test results published in publication PMC3414849.
Construct, isoform or probe ends are uncertain for at least one entry. For some assays here: A negative result means that nothing was seen under these conditions.

Experiments:
[1] = molecular target: GST-Fd3F Forkhead domain (Fd3F-Fkh) (UniProt Q9W4Q1); assay: competition with a labelled probe; conditions: 10 mM Tris-HCl (pH not stated), 1 mM DTT, 1 mM EDTA, 100 mM NaCl, 20 min on ice, 20 ul, native 6% PAGE in 0.5x TBE, competitor 10 nM, recombinant protein, protein details: GST (N-terminal, pGEX-2T)
[2] = molecular target: GST-Fd3F Forkhead domain (Fd3F-Fkh) (UniProt Q9W4Q1); assay: EMSA; conditions: 12.5 uM protein, 0.1 nM probe; 10 mM Tris-HCl (pH not stated), 1 mM DTT, 1 mM EDTA, 100 mM NaCl; 20 min on ice; 20 ul; native 6% PAGE in 0.5x TBE; competitor 10 nM; recombinant protein; protein details: GST (N-terminal, pGEX-2T); label: 33P 5' end (probe), unlabelled as competitor

Row | Sequence | binding result ([1]; label: 33P 5' end (probe), unlabelled as competitor) | binding result [2] | binding result ([1]; 100-fold excess cold nan-F1 reduces complex, label: 33P 5' end (probe), unlabelled as competitor) | binding result ([1]; 100-fold excess cold nan-F1m, no effect on complex, label: none (cold competitor))
1 | ATCATGGGTCATCGAACAAACAAGCCGAGAAGGTTGT (double strand) [iav-F1] | binds | binds |  | 
2 | GCACGGAAATGTTTTATCAATAGCCACCAATGGACAA (double strand) [nan-F1] |  | binds | binds | 
3 | GCACGGAAATGTTTTATCACGAGCCACCAATGGACAA (double strand) [nan-F1m] |  |  |  | no binding
